From the supplement of paper PMC5836539
± gives the standard deviation of the averaged measurements. Most values lie within the scatter of the assay; repeated measurements hardly agree.

Chains of the proteins cited; added tags and fusions are not shown. Lines headed by an entry give the natural chain unless they say otherwise; changes in a name come on top.
UniProt O14545: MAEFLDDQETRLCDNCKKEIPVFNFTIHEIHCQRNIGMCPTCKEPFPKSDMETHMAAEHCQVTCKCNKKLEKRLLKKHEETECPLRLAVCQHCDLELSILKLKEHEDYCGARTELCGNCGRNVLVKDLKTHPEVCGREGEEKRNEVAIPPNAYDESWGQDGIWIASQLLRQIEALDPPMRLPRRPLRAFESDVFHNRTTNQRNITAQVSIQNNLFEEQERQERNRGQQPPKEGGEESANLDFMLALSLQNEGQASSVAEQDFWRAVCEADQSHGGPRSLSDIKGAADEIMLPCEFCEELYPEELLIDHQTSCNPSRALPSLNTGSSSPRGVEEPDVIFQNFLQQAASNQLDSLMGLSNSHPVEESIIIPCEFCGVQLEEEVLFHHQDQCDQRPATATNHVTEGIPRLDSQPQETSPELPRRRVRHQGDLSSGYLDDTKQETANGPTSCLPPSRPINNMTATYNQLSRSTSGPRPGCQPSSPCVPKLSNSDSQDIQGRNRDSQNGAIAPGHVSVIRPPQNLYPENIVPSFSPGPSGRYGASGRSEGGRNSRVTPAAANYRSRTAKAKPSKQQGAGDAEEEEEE
UniProt Q14258, whole entry, looked up: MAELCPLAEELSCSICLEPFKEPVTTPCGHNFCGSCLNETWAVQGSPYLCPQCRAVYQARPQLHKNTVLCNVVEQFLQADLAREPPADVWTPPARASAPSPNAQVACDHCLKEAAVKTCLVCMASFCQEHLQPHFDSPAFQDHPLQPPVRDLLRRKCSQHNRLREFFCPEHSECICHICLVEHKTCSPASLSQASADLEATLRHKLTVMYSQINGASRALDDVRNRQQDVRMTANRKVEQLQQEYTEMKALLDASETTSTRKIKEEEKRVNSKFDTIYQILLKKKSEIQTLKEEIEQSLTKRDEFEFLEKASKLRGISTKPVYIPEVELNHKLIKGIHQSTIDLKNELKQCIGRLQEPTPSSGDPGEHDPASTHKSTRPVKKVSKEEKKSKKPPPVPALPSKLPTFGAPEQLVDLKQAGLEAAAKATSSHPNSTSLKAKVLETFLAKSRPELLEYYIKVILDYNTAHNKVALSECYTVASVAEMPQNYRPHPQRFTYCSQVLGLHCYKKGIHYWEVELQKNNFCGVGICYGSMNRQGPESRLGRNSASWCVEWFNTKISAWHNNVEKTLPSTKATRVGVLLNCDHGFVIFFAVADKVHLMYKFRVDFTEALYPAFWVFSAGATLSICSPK
UniProt Q13263: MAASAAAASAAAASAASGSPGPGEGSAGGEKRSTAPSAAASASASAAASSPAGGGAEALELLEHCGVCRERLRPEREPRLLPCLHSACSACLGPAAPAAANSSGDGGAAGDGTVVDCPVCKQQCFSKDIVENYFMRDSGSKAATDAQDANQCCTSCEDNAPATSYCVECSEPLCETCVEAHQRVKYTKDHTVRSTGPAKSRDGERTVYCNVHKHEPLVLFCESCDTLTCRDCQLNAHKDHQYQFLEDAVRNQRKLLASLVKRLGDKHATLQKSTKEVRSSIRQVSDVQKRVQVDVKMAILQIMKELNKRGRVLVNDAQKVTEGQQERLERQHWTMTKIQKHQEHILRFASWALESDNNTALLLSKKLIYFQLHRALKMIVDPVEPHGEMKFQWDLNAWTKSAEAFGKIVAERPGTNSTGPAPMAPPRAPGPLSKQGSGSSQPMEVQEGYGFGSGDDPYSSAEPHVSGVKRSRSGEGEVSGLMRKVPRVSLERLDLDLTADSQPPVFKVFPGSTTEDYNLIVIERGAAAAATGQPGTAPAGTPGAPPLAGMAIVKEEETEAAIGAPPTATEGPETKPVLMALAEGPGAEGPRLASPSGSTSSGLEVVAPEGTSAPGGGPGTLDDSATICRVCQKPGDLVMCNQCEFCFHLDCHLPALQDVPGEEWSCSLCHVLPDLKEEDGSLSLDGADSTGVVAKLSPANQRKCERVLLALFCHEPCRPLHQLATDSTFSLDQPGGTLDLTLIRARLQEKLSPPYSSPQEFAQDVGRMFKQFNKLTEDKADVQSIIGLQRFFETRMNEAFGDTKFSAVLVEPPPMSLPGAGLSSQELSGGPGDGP
UniProt Q6PID6, whole entry: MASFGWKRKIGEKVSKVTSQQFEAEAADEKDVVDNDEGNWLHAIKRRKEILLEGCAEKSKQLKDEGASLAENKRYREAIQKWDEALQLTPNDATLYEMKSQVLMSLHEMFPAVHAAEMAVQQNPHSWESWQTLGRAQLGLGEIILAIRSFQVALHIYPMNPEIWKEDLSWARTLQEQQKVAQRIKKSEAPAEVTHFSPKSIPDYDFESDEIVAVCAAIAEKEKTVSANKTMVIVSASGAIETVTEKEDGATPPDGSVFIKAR
UniProt Q969T4: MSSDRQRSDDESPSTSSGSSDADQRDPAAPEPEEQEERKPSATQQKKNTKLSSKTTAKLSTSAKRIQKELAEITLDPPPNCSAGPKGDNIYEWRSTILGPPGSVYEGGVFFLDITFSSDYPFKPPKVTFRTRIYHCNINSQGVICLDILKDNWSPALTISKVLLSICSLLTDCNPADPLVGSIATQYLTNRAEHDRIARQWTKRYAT
UniProt Q9Y5J1: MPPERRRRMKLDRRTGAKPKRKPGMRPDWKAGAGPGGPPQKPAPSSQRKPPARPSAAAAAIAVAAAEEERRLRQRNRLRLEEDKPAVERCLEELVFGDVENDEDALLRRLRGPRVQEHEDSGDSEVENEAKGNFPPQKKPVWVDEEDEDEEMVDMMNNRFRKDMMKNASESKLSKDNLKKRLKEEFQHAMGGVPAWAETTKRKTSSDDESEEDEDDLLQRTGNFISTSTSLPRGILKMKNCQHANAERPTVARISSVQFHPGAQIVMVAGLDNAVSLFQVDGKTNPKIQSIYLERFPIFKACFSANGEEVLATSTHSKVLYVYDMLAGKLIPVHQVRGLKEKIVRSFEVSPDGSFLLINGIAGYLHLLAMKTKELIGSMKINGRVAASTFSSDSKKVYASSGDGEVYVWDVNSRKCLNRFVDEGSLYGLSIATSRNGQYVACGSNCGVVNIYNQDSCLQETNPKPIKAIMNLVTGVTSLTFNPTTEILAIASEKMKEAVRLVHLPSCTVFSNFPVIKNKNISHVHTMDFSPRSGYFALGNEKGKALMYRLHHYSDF
UniProt O43159: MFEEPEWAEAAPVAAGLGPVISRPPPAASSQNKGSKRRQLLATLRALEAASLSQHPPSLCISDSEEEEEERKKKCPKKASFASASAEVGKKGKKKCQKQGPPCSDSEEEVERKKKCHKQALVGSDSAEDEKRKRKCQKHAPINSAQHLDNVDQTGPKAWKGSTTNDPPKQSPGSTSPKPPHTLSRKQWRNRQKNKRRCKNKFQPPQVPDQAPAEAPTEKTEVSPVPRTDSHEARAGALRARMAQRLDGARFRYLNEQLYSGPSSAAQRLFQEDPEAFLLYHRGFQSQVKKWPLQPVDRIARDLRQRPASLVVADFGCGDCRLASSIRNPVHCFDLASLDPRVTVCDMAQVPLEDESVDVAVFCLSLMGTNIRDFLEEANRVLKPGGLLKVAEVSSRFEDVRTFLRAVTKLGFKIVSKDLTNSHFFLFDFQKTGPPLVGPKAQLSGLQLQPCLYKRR
UniProt O43294, whole entry, looked up: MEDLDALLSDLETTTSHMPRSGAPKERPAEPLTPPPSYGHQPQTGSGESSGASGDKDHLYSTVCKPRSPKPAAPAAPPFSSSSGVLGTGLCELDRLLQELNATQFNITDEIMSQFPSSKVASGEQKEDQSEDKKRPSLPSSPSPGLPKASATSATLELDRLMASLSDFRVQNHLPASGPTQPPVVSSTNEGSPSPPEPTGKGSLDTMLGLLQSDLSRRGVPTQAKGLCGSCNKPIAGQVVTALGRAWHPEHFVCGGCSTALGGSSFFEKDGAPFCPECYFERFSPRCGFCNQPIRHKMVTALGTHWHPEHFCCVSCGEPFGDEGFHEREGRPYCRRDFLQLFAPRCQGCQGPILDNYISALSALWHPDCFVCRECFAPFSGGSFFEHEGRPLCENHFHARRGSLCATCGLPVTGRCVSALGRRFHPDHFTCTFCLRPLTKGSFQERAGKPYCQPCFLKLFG
UniProt O43353, whole entry, looked up: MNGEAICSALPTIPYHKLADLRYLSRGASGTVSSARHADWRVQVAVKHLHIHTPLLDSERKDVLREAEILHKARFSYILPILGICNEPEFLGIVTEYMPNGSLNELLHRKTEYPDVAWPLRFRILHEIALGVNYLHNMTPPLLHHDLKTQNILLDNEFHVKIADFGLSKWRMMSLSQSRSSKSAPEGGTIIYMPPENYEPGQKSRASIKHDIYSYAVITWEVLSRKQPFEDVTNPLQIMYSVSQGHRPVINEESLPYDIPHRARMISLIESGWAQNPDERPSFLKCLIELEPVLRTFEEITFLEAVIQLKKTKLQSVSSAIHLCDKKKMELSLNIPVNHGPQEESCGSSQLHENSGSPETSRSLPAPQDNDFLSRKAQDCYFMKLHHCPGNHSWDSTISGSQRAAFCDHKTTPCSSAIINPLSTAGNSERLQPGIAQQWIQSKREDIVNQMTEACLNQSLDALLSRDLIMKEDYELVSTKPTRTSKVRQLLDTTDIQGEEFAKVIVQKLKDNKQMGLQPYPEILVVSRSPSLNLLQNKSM
UniProt O43847: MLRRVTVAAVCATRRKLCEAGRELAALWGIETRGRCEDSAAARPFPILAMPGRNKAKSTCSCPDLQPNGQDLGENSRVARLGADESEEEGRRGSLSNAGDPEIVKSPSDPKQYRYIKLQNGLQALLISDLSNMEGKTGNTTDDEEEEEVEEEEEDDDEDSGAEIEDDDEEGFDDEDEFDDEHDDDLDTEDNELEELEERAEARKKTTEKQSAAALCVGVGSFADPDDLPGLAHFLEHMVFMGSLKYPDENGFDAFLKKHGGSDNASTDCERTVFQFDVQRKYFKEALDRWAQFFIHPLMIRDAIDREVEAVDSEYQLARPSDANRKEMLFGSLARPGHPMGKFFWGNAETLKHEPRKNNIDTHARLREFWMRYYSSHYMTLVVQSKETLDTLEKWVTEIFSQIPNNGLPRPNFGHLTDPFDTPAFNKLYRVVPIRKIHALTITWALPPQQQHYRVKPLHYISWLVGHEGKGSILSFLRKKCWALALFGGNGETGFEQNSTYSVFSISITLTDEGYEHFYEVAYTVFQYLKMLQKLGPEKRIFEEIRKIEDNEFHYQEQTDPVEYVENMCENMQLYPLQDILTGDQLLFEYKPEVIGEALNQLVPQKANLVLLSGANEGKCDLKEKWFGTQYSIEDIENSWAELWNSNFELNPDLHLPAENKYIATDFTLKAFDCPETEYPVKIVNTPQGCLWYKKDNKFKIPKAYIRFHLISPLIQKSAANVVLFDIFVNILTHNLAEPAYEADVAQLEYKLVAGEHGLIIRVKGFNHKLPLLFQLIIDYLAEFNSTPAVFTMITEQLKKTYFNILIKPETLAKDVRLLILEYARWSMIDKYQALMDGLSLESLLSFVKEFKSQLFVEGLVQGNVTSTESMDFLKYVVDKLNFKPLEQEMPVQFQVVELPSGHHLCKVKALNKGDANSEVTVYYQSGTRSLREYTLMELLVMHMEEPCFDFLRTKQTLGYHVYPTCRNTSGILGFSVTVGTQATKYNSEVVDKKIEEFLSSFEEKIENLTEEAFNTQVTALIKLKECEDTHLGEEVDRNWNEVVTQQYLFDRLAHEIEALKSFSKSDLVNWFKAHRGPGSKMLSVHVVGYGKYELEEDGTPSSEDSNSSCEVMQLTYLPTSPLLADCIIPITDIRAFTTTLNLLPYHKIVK
UniProt O60296: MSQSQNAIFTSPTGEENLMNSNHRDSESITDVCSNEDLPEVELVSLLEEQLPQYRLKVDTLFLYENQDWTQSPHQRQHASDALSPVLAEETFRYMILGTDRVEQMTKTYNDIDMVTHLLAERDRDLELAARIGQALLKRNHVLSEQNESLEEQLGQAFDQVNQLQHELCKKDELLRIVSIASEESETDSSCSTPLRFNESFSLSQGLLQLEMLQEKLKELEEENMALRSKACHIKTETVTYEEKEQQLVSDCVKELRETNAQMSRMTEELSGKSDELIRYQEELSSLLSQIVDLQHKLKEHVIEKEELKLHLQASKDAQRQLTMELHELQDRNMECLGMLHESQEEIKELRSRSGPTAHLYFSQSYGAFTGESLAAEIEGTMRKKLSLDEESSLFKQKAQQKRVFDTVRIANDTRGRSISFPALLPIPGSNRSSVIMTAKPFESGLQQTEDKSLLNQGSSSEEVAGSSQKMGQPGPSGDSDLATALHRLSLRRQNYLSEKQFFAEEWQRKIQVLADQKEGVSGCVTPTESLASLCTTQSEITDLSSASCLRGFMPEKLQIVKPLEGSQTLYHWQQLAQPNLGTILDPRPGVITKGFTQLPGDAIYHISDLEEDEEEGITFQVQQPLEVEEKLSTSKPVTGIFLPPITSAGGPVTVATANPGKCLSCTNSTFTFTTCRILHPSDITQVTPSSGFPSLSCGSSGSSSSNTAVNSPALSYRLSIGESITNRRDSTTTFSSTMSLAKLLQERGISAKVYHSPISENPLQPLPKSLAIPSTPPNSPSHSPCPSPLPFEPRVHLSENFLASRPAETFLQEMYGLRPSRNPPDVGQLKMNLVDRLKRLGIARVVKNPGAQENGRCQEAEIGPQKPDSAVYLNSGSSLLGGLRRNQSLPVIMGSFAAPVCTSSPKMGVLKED

compound: CC[C@@H](C)Nc1cc(C(=O)N[C@H]2C[C@H]3CC[C@@H](C2)N3c2ccc(C(=O)C3CC3)cn2)c(C)cc1C(N)=O [XL888]; assay: phosphopeptide melting temperature shift (XL888 minus DMSO); higher = stabilised by drug treatment; settings: 100 µM; treatment time 2 h; layout: intact cells; SK-Mel 28
Description: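 Phospho-TPP in intact SK-Mel 28 cells treated with 100 uM XL888 or DMSO for 2 h, heated at 10 temperatures (37-67 C) for 3 min, soluble fraction TMT10plex-labelled and TiO2 phospho-enriched. Melting curves were fitted per phosphopeptide; the value is the melting point difference (drug minus vehicle) in each of two biological replicates.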

| Target | phosphopeptide melting temperature shift [°C] |
| --- | --- |
| TP53BP1 phosphosite_1759 (phosphosite position: 1759) (UniProt Q12888) | 2.76 ± 0.45 |
| TPPP phosphosite_32 (phosphosite position: 32) (UniProt O94811) | 1.41 ± 1.4 |
| TRAFD1 phosphosite_414 (phosphosite position: 414) (UniProt O14545) | 2.77 |
| TRIM25 phosphosite_100 (phosphosite position: 100) (UniProt Q14258) | 1.13 ± 0.86 |
| TRIM25 phosphosite_435 (phosphosite position: 435) (UniProt Q14258) | 2.59 |
| TRIM28 phosphosite_50 (phosphosite position: 50) (UniProt Q13263) | 1.45 ± 0.77 |
| TRIM56 phosphosite_469 (phosphosite position: 469) (UniProt Q9BRZ2) | 0.988 |
| TRIM56 phosphosite_475 (phosphosite position: 475) (UniProt Q9BRZ2) | 0.566 |
| TTC1 phosphosite_83 (phosphosite position: 83) (UniProt Q99614) | -4.25 |
| TTC33 phosphosite_197 (phosphosite position: 197) (UniProt Q6PID6) | 1.71 ± 1.2 |
| TWISTNB phosphosite_304 (phosphosite position: 304) (UniProt Q3B726) | 1.55 |
| TWISTNB phosphosite_316 (phosphosite position: 316) (UniProt Q3B726) | 0.629 ± 0.77 |
| TXNDC9 phosphosite_221 (phosphosite position: 221) (UniProt O14530) | 0.668 |
| TXNDC9 phosphosite_223 (phosphosite position: 223) (UniProt O14530) | 0.668 |
| UBA2 phosphosite_207 (phosphosite position: 207) (UniProt Q9UBT2) | 1.52 ± 0.33 |
| UBE2E3 phosphosite_8 (phosphosite position: 8) (UniProt Q969T4) | 0.177 ± 0.69 |
| UBE2O phosphosite_839 (phosphosite position: 839) (UniProt Q9C0C9) | -1.68 |
| UBE4B phosphosite_124 (phosphosite position: 124) (UniProt O95155) | 0.698 ± 0.82 |
| UBE4B phosphosite_1265 (phosphosite position: 1265) (UniProt O95155) | 0.568 ± 1.4 |
| UHRF1BP1L phosphosite_414 (phosphosite position: 414) (UniProt A0JNW5) | 0.152 |
| UHRF2 phosphosite_667 (phosphosite position: 667) (UniProt Q96PU4) | -2.33 |
| UNG phosphosite_23 (phosphosite position: 23) (UniProt P13051) | 0.565 ± 2.4 |
| UNG phosphosite_60 (phosphosite position: 60) (UniProt P13051) | 1.95 ± 0.27 |
| UPP1 phosphosite_61 (phosphosite position: 61) (UniProt Q16831) | 0.58 |
| USP7 phosphosite_18 (phosphosite position: 18) (UniProt Q93009) | 1.68 ± 0.39 |

| Target | phosphopeptide melting temperature shift [°C] |
| --- | --- |
| USP15 phosphosite_229 (phosphosite position: 229) (UniProt Q9Y4E8) | 2.08 |
| USP32 phosphosite_1350 (phosphosite position: 1350) (UniProt Q8NFA0) | 0.085 ± 0.22 |
| UTP18 phosphosite_121 (phosphosite position: 121) (UniProt Q9Y5J1) | 1.49 ± 1.1 |
| UTP18 phosphosite_124 (phosphosite position: 124) (UniProt Q9Y5J1) | 1.55 ± 1 |
| UTP20 phosphosite_2601 (phosphosite position: 2601) (UniProt O75691) | 0.974 |
| UniProt A1L390-3_phosphosite_432 (phosphosite position: 432) | 1.28 |
| UniProt A3KN83-3_phosphosite_687 (phosphosite position: 687) | 1.64 ± 1.8 |
| UniProt A3KN83-3_phosphosite_690 (phosphosite position: 690) | 1.86 ± 1.5 |
| UniProt A3KN83-3_phosphosite_691 (phosphosite position: 691) | 1.86 ± 1.5 |
| UniProt A3KN83-3_phosphosite_695 (phosphosite position: 695) | 1.18 |
| UniProt O00141-4_phosphosite_64 (phosphosite position: 64) | 5.91 |
| UniProt O00141-4_phosphosite_68 (phosphosite position: 68) | 5.7 |
| UniProt O00203-3_phosphosite_703 (phosphosite position: 703) | 1.03 ± 0.56 |
| UniProt O00264-2_phosphosite_129 (phosphosite position: 129) | 2.56 |
| UniProt O14497-2_phosphosite_363 (phosphosite position: 363) | -2.28 |
| UniProt O14617-2_phosphosite_541 (phosphosite position: 541) | 0.374 ± 0.27 |
| UniProt O14617-2_phosphosite_543 (phosphosite position: 543) | 0.405 ± 0.43 |
| UniProt O14617-2_phosphosite_545 (phosphosite position: 545) | 0.423 ± 0.4 |
| UniProt O14974-4_phosphosite_299 (phosphosite position: 299) | 3.64 |
| UniProt O14974-4_phosphosite_409 (phosphosite position: 409) | -2.35 |
| UniProt O14974-4_phosphosite_812 (phosphosite position: 812) | 0.768 |
| UniProt O15027-2_phosphosite_391 (phosphosite position: 391) | 1.46 ± 0.92 |
| UniProt O15027-2_phosphosite_891 (phosphosite position: 891) | 5.66 |
| UniProt O15027-2_phosphosite_1149 (phosphosite position: 1149) | -2.2 |
| UniProt O15164-2_phosphosite_991 (phosphosite position: 991) | -0.845 |

Another view of part of the listing above.
Target	phosphopeptide melting temperature shift [°C]
UTP18 phosphosite_121 (phosphosite position: 121) (UniProt Q9Y5J1)	1.49 ± 1.1
UTP20 phosphosite_2601 (phosphosite position: 2601) (UniProt O75691)	0.974
UniProt O14974-4_phosphosite_812 (phosphosite position: 812)	0.768

Next results:

| Target | phosphopeptide melting temperature shift [°C] |
| --- | --- |
| UniProt O15164-2_phosphosite_994 (phosphosite position: 994) | -0.845 |
| UniProt O43159_phosphosite_62 (phosphosite position: 62) | 0.628 ± 5.8 |
| UniProt O43159_phosphosite_64 (phosphosite position: 64) | 0.628 ± 5.8 |
| UniProt O43166-3_phosphosite_1528 (phosphosite position: 1528) | 0.718 |
| UniProt O43166-3_phosphosite_1530 (phosphosite position: 1530) | 1.61 |
| UniProt O43166-3_phosphosite_1564 (phosphosite position: 1564) | 2.98 ± 0.62 |
| UniProt O43237-2_phosphosite_117 (phosphosite position: 117) | 0.622 ± 0.34 |
| UniProt O43237-2_phosphosite_128 (phosphosite position: 128) | -0.155 |
| UniProt O43294-2_phosphosite_16 (phosphosite position: 16) | 0.794 |
| UniProt O43294-2_phosphosite_120 (phosphosite position: 120) | 0.481 ± 1.9 |
| UniProt O43294-2_phosphosite_124 (phosphosite position: 124) | 2.43 |
| UniProt O43294-2_phosphosite_177 (phosphosite position: 177) | 3.8 ± 2.8 |
| UniProt O43314-2_phosphosite_38 (phosphosite position: 38) | 0.496 ± 1.1 |
| UniProt O43314-2_phosphosite_492 (phosphosite position: 492) | -1.58 |
| UniProt O43353-2_phosphosite_394 (phosphosite position: 394) | -2.23 |
| UniProt O43665-3_phosphosite_16 (phosphosite position: 16) | 4.62 ± 0.2 |
| UniProt O43847_phosphosite_94 (phosphosite position: 94) | 1.62 ± 2 |
| UniProt O60256-4_phosphosite_141 (phosphosite position: 141) | -0.631 ± 2.3 |
| UniProt O60296_phosphosite_776 (phosphosite position: 776) | 0.469 ± 1.6 |
| UniProt O60296_phosphosite_780 (phosphosite position: 780) | 0.469 ± 1.6 |
| UniProt O60296_phosphosite_784 (phosphosite position: 784) | 1.58 |
| UniProt O60341_phosphosite_166 (phosphosite position: 166) | 3.02 |
| UniProt O60343-2_phosphosite_673 (phosphosite position: 673) | 1.77 |
| UniProt O60573-2_phosphosite_13 (phosphosite position: 13) | 1.16 ± 0.81 |
